From patent US20250326860A1
Positions count from the first letter of the chain named. Results are given in words; binding and its absence hold for the method and conditions named. Some results given as binding are weak or reduced against the parent protein; the word gives no strength. Values belong to the binder of their own block, whether it stands above or below them.

Amino acid sequences for entries named in this document (tags omitted). Residues count along the entry.
UniProt P07766, residues 23-207: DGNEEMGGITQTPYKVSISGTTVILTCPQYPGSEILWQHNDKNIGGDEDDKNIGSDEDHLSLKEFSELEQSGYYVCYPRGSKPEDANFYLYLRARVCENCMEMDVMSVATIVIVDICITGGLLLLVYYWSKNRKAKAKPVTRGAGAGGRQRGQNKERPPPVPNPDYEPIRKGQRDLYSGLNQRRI

Target: human CD3 on cells (Jurkat cells, human T cells) (human) (UniProt P07766)
Test: flow cytometry on Jurkat cells, APC anti-human IgG secondary antibody

binding: binds
B1: TY24557 (antibody, V domains shown)
VH: EVQLVESGGGLVKPGGSLRLSCAASGFTFSTYAMNWVRQAPGKGLEWVSRIRSKYNNYATYYADSVKDRFTISRDDSKNTLYLQINSLRAEDTAVYYCVRHGNFGTSYVSWFAYWGQGTLVTVSS
VL: EAVVTQEPSLTVSPGGTVTLTCGSSTGAVTTSNYPNWVQQKPGQAPRGLIGGTNKRAPGTPARFSGSLLGGKAALTLSGAQPEDEAEYYCALWYSDLWVFGGGTKLTVL

binding: binds
B2: TY24569 (antibody, V domains shown)
VH: B1 VH
VL: B1 VL with G23R, P35A, N54K, K55F, T60V

binding: binds
B3: TY24757 (antibody, V domains shown)
VH: B1 VH with K13Q, M34I, D64E
VL: B1 VL with E1Q, P35A, D96T

binding: binds
B4: TY24742 (antibody, V domains shown)
VH: B1 VH with K13Q, M34I, D64E
VL: B1 VL

binding: binds
B5: TY24566 (antibody, V domains shown)
VH: B1 VH with K13Q
VL: B1 VL with G23R, P35A, N54K, K55F, T60V
